Assay results from patent publication US20180188270A1, “DIAGNOSTIC TEST FOR ALZHEIMER'S DISEASE BASED ON IDENTIFICATION OF A PROTEOLYTIC PATHWAY” (Health Research, Inc., priority 2015, published 2018).
Some entries share one result that the patent states for a list of compounds.

How the values were obtained:
[1] = tested on: plasma Aβ1-42; test: Plasma Aβ1-42 concentration in mice by ELISA; type: in vivo, mouse; conditions: WT mice, CCl4 0.5 g/kg or hPEPD 4 mg/kg i.p., 24 h; range printed jointly for mSRC and mAβ1-42
[2] = tested on: plasma mSRC; test: Plasma SRC concentration in mice by ELISA; type: in vivo, mouse; conditions: WT mice, CCl4 0.5 g/kg or hPEPD 4 mg/kg i.p., 24 h; range printed jointly for mSRC and mAβ1-42
Procedure: Animal studies. All animal studies were performed in accordance with protocols approved by the Institutional Animal Care and Use Committee at Roswell Park Cancer Institute. Male mice at 7-8 weeks of age were used, including wild type (WT) mice (C57BL/6), and mice deficient in FXII (C57BL/6-FXII^−/−) or FVII (C57BL/6-FVII^tTA/tTA). WT C57BL/6 mice were purchased from Taconic. C57BL/6-FXII^−/− mice and C57BL/6-FVII^tTA/tTA mice were bred in our own facility and genotyped. The breeders were kindly provided by Dr. Francis J. Castellino at University of Notre Dame. […] CCl4 was dissolved in corn oil, whereas all other substances were dissolved in PBS. The vehicle or the test substance was given to mice in 0.1 ml volume per 20 g body weight. Blood was collected from the mice at specific times by cardiac puncture at the time of sacrifice by carbon dioxide, and heart, liver and kidney were also collected from some of the mice. […]
Measurement of plasma levels of PEPD, SRC, Aβ1-42 and FI. […] Upon adequate color development, 100 μl of stop solution (Cell Signaling, 7002) was added to each well, and absorbance at 450 nm was promptly recorded by a microtiter plate reader. Plasma FI concentration was determined using an assay kit (400-374-130050) from GenWay Biotech, following the manufacturer's instruction.

B1: hPEPD: recombinant human prolidase (PEPD), 6xHis tagged to the carboxy terminus (protein, UniProt P12955 2-493, looked up)
Xaa-Pro dipeptidase: AAATGPSFWLGNETLKVPLALFALNRQRLCERLRKNPAVQAGSIVVLQGGEETQRYCTDTGVLFRQESFFHWAFGVTEPGCYGVIDVDTGKSTLFVPRLPASHATWMGKIHSKEHFKEKYAVDDVQYVDEIASVLTSQKPSVLLTLRGVNTDSGSVCREASFDGISKFEVNNTILHPEIVECRVFKTDMELEVLRYTNKISSEAHREVMKAVKVGMKEYELESLFEHYCYSRGGMRHSSYTCICGSGENSAVLHYGHAGAPNDRTIQNGDMCLFDMGGEYYCFASDITCSFPANGKFTADQKAVYEAVLRSSRAVMGAMKPGVWWPDMHRLADRIHLEELAHMGILSGSVDAMVQAHLGAVFMPHGLGHFLGIDVHDVGGYPEGVERIDEPGLRSLRTARHLQPGMVLTVEPGIYFIDHLLDEALADPARASFLNREVLQRFRGFGGVRIEEDVVVTDSGIELLTCVPRTVEEIEACMAGCDKAFTPFSGPK
modifications: C-terminal 6xHis tag
notes: recombinant human prolidase (PEPD), 6xHis tagged to the carboxy terminus
[1]
  average plasma level of mAβ1-42, decrease: 41.2-56.1%
[2]
  average plasma level of mSRC, decrease: 41.2-56.1%
